Laboratory results as given in patent publication US20240091259A1, “GENERATION OF ANTI-TUMOR T CELLS” (Dana-Farber Cancer Institute, Inc., priority 2022, published 2024).

Test system: CD8+ TILs
Experiment: scRNA-seq / CITEseq differential expression among CD8+ TIL clusters
Design: species or system human
Settings: differentially expressed genes among the 12 clusters of CD8+ TILs, adjusted P value < 0.05

CCL4
avg_logFC (Cluster 3: CD8 Effectors): 1.409
avg_logFC (Cluster 7: NK-like): −2.356
